# Source: PubChem BioAssay AID1671190 (National Center for Advancing Translational Sciences (NCATS), 2021)
# By UniProt entry, the sequences of proteins in these tests, tags left out. Where a name states a change or a piece, a line headed by the entry shows the natural chain unless it says otherwise.
# UniProt P18054: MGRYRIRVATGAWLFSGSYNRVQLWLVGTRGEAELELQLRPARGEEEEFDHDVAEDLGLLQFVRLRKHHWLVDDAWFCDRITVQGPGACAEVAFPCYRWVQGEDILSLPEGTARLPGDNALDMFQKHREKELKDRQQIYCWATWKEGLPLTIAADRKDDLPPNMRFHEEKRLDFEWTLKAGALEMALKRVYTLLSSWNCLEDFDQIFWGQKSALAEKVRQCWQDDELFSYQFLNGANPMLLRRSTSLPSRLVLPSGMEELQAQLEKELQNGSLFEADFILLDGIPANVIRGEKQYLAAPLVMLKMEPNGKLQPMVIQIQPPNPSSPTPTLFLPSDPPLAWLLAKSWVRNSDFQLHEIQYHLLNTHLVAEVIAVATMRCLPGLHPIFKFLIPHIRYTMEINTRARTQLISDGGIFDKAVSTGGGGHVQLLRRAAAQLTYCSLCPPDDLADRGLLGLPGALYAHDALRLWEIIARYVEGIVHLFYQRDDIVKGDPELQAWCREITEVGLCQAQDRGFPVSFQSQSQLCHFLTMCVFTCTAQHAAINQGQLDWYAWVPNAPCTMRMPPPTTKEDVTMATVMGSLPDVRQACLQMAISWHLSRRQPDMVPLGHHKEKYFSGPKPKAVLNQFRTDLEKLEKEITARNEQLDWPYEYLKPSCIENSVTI
# “And” between values parts separate entries of the source, which are not always exact repeats. Identical values can stand only once. The whole screen tested about 580,000 compounds, of which about 6,100 (1.1%) were called active. Inconclusive means that the source gave no clear call. Such entries were picked first, then a sample of the others. Calls follow the shape of the dose curve; as a rule, active = well fitted inhibition curve with a large enough effect; inconclusive = small, poorly fitted or top-dose-only effect, or another doubt; inactive = no such curve, though single readings can be large or run the other way. Potencies of inconclusive entries are doubtful fits and often do not repeat.
# Biological target: Polyunsaturated fatty acid lipoxygenase ALOX12 (Homo sapiens) (UniProt P18054)
# Assay: Primary qHTS assay for inhibitors of human arachidonate 12S-lipoxygenase (ALOX12): Round 2
# Conditions: purified 12hLO, xylenol orange hydroperoxide absorbance; series mostly up to 108 µM
# Outline: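 Purified human 12hLO (150 nM final) in 25 mM Hepes, 0.01% Triton X-100, pH 7.0 was preincubated 15 min at room temperature with compound. Then 40 uM arachidonic acid was added, 30 min. Hydroperoxide was read by Fe-XO absorbance ratio 573/405 nm.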
# Potency is read from the fitted curve at half-maximal effect.
row,Compound,Potency
1,CCOCCn1ccc2c(OCC(=O)Nc3cccc(F)c3)cccc2c1=O,inactive
2,Cc1ccc2[nH]c(C(=O)NCc3cccs3)cc2c1,inactive
3,O=C(NCCN1CCN(c2ccccc2)CC1)c1cccn2c(=O)c3cc(Cl)ccc3nc12,inactive
4,N#C/C(=C\c1cc(Br)ccc1F)C(=O)NC1CC1,"inconclusive: 39.8 µM [inhibitor, partial curve, poor fit]"
5,Cc1ccccc1COc1ccc(/C=C(\C#N)C(N)=O)cc1,inactive
6,CCCCC(=O)Nc1ccc(N2CCN(C(=O)CC)CC2)cc1,"inconclusive: 44.7 µM [inhibitor, partial curve, poor fit]"
7,CCN1CCC2(CC1)N=C(c1ccc(F)cc1)C(=S)N2C(=O)c1ccc(C(C)(C)C)cc1,"inconclusive: 44.7 µM [inhibitor, partial curve, poor fit]"
8,COc1ccc(CN2CC3=C(C2=O)C(c2ccc(SC)cc2)NC(=O)N3)cc1 (stereo not given),"inconclusive: 22.4 µM [inhibitor, full curve]"
9,COCCn1c(-c2ccc(OCc3ccc(F)cc3)c(OC)c2)nc2c1c(=O)[nH]c(=O)n2CC(C)C,"inconclusive: 12.6 µM [inhibitor, partial curve, poor fit]"
10,Cc1ccc(C2c3c(oc4ccccc4c3=O)C(=O)N2c2nnc(C)s2)cc1 (stereo not given),"inconclusive: 56.2 µM [inhibitor, partial curve, poor fit]"
11,NCCCn1cnc2ccccc21,"inconclusive: 89.1 µM [inhibitor, single point]"
12,CCOC(=O)c1c(NC(=O)Cn2nnc(-c3ccccc3)n2)sc(C)c1CC,"inconclusive: 112 µM [inhibitor, single point]"
13,Cc1cc(C)c2c(=O)[nH]c(SCC(=O)Nc3ccc(Br)cc3)nc2n1,"inconclusive: 50.1 µM [inhibitor, partial curve, poor fit] and inconclusive: 28.2 µM [inhibitor, partial curve, poor fit]"
14,CCCCN(Cc1ccccc1)c1ccc(NS(=O)(=O)c2cccs2)cc1C(=O)O,"inconclusive: 14.1 µM [inhibitor, partial curve]"
15,CCC(C)N1C(=O)/C(=C/c2c(NCCCOC(C)C)nc3c(C)cccn3c2=O)SC1=S (stereo not given),"inconclusive: 7.94 µM [inhibitor, partial curve, poor fit]"
16,COc1cccc(CNC(=O)[C@@H]2[C@@H](CO)[C@@H]3Cn4c(ccc(-c5cncnc5)c4=O)[C@H]2N3C(C)=O)c1,"inconclusive: 89.1 µM [inhibitor, single point]"
17,O=C(NCc1ccccc1Cl)C(=O)Nc1cccc(O)c1,inactive
18,Cc1nc(N2CCC(NC(=O)CC3CCCCC3)CC2)cc(C(F)(F)F)n1,"inconclusive: 50.1 µM [inhibitor, partial curve]"
19,COc1ccc(S(=O)(=O)N2CCC(C(=O)Nc3cc(C(F)(F)F)ccc3Cl)CC2)cc1,"inconclusive: 126 µM [inhibitor, partial curve, poor fit]"
20,CN(NS(=O)(=O)c1ccccc1)c1nc2ccccc2nc1C(F)(F)F,"inconclusive: 112 µM [inhibitor, single point]"
21,Cc1ccc(-c2noc(-c3cccc(F)c3)n2)cc1,inactive
22,Cc1c(C=O)c2ccccc2n1CC(=O)NCc1ccc2c(c1)OCO2,inactive
23,O=C(CCNC(=O)c1ccco1)NCc1ccc(C(=O)O)cc1,inactive

row,Compound,Potency
1,CCC(=O)Nc1cccc(NC(=O)CSc2nnc(C(C)C)n2CC)c1,inactive
2,O=C(Nc1ccc(Br)cc1)C1=C(c2ccccc2)SCCO1,"inconclusive: 0.282 µM [inhibitor, full curve, poor fit]"
3,COCC(=O)Nc1nnc(C2CCCCC2)s1,inactive
4,COc1ccc(Nc2nc(Cl)nc(N3CCN(c4ccc(OC)cc4)CC3)n2)cc1,inactive
5,Cc1ccc(-n2nc3ccc(NC(=S)NC(=O)/C=C/c4ccco4)cc3n2)cc1,"inconclusive: 50.1 µM [inhibitor, partial curve, poor fit]"
6,CCCC(=O)N1CCCCC1C(=O)O (stereo not given),"inconclusive: 50.1 µM [inhibitor, partial curve, poor fit]"
7,CCCCCn1cc2c(c1-c1ccccc1Br)c(=O)n(C)c(=O)n2C,"inconclusive: 79.4 µM [inhibitor, partial curve, poor fit]"
8,CCOc1ccc(OCC)c(S(=O)(=O)n2cc(C)nc2CC)c1,inactive
9,Fc1ccc(Nc2ccnc(-c3ccoc3)n2)cc1,"inconclusive: 7.94 µM [inhibitor, full curve, poor fit]"
10,CCOc1cccc(C(=O)Nc2ccc(OCC)c3ncccc23)c1,inactive
11,CCCCn1c(SCC(=O)NC2CCCC2)nc2ccccc2c1=O,inactive
12,Cc1nn(C)c(C)c1CN(C)C(=O)c1cc2n(n1)C(C(F)(F)F)CC(c1cccs1)N2 (stereo not given),inactive
13,CCOc1ccc(NC(=O)C(C)Oc2ccccc2Cl)c2cccnc12 (stereo not given),inactive
14,CCc1noc(C)c1C(=O)NNC(=O)c1ccc(F)cc1,"inconclusive: 63.1 µM [inhibitor, partial curve, poor fit]"
15,S=c1[nH]nc(Nc2cccc3ccccc23)s1,"inconclusive: 5.62 µM [inhibitor, full curve, poor fit]"
16,O=C(Nc1ccc2c(c1)OCCO2)N1CCCC(c2nc(C3CCOCC3)no2)C1 (stereo not given),inactive
17,COc1ccc(C(c2nnnn2CC2CCCO2)N2CCN(c3cccc(C)c3C)CC2)cc1 (stereo not given),"inconclusive: 15.8 µM [inhibitor, partial curve, poor fit]"
18,CCNC(=S)NCc1ccco1,inactive
19,O=C(CN1CC(=O)Oc2ccccc21)NCc1ccco1,"inconclusive: 39.8 µM [inhibitor, partial curve, poor fit]"
20,CCOC(=O)c1cc2cc(OC)ccc2nc1C,inactive
21,Cc1ccc2occ(CC(=O)Nc3ccc(S(=O)(=O)N4CCC(C)CC4)cc3)c2c1,inactive
22,O=C(Nc1ccc(S(=O)(=O)N2CCc3ccccc32)cc1)c1ccco1,"inconclusive: 39.8 µM [inhibitor, partial curve, poor fit]"
